PubChem BioAssay AID1259254 – NCATS – 2017
The deposit covers about 59,000 reagents; this is a part drawn at random. About 1,550 of all reagents (2.6%) count as active. 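G2 share is only a proxy for re-replication; each gene was hit by three separate siRNAs, and active genes were retested.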 Entries without a mark were called inactive. The numbers tell different reagents against one gene apart. Further read-outs or replicates are left out here. The record does not give: the amount of reagent.

Test: 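Gene knock-downs that lead to re-replication, shown by excess G2 DNA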 (primary screen)
Cells: human HCT116 colorectal cancer cells
Reagent: single siRNA against human genes
Time to read-out: 3 days
Measured: 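Imaged Hoechst DNA stain sorts each cell into a cycle phase by DNA amount; per plate, G2 fraction set to 0% for non-targeting and 100% for GMNN siRNA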
Direction: G2 robust z-score: higher = more G2 cells, more excess DNA replication
Rule for the call: 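Active siRNAs have a G2 robust z of 5 or more median absolute deviations over the median, which in these data means about 38% or higher of GMNN control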

| G2 robust z-score | target | siRNA no. |
| --- | --- | --- |
| 5.61 (active) | IGSF22 | 1 |
| -0.811 | IGSF22 | 2 |
| -0.999 | IGSF22 | 3 |
| -0.253 | KCNK13 | 1 |
| -0.946 | KCNK13 | 2 |
| 0.897 | KCNK13 | 3 |
| 0.287 | FAM170A | 1 |
| -0.283 | FAM170A | 2 |
| 0.483 | FAM170A | 3 |
| -0.518 | ZNF121 | 1 |
| -1.66 | ZNF121 | 2 |
| 0.872 | ZNF121 | 3 |
| 2.05 | SFXN2 | 1 |
| -0.461 | SFXN2 | 2 |
| -0.0448 | SFXN2 | 3 |
| -0.528 | SDCBP | 1 |
| 0.615 | SDCBP | 2 |
| -0.339 | SDCBP | 3 |
| -0.806 | KL | 1 |
| -0.391 | KL | 2 |
| -0.765 | KL | 3 |
| -1.36 | ARRB2 | 1 |
| -0.641 | ARRB2 | 2 |
| 3.5 | ARRB2 | 3 |
| 0.211 | KRT81 | 1 |
| -1.2 | KRT81 | 2 |
| -0.954 | KRT81 | 3 |
| 3.68 | GRAPL | 1 |
| -0.236 | GRAPL | 2 |
| -0.923 | GRAPL | 3 |
